Laboratory results: US20240277807A1
No constants are given. Whether binding was seen depends on the method and setting. Some results given as binding are weak or reduced against the parent protein; the word gives no strength.

The chains behind the UniProt entries cited, without tags or fusion partners. Where a name states a change or a piece, a line headed by the entry shows the natural chain unless it says otherwise. Residues count along the entry.
UniProt P22004, residues 382-513: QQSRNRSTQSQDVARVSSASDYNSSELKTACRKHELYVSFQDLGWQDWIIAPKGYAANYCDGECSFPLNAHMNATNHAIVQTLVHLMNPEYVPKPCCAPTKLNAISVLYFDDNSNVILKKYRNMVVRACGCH
UniProt O14793, residues 267-375: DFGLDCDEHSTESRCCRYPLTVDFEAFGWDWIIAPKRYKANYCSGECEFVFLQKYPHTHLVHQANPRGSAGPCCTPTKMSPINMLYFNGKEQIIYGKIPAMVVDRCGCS
UniProt O95390, residues 299-407: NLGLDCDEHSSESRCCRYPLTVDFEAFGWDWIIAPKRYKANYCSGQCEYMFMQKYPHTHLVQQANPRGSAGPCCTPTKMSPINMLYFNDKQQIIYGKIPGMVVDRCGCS
UniProt P27037: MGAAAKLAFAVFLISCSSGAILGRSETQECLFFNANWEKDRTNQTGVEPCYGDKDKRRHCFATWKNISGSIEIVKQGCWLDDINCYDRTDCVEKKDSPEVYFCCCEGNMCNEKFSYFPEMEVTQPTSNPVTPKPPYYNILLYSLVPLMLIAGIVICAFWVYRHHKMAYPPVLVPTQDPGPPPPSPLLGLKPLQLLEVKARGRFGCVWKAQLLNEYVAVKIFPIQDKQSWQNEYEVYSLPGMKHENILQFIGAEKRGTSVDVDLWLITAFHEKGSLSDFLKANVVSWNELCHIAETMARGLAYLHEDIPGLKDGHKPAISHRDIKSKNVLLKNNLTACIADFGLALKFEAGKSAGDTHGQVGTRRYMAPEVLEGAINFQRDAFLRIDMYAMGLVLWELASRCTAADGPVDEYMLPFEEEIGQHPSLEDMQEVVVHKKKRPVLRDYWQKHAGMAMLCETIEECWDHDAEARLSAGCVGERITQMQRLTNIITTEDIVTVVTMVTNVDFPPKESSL

Legend:
[1] = biological target: T1, activin B (UniProt P09529); assay: similar Biacore binding assay
T1 sequence (looked up): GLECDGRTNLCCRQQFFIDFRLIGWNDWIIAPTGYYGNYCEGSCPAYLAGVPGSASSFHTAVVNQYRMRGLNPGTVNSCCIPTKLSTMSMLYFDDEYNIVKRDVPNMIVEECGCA

[2] = biological target: T2, BMP10 (UniProt O95393); assay: similar Biacore binding assay
T2 sequence (looked up): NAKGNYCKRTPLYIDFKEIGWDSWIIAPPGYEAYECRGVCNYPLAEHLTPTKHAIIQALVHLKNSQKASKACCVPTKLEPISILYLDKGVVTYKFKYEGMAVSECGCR

[3] = biological target: BMP6 (UniProt P22004); assay: similar Biacore binding assay
[4] = biological target: GDF8 (UniProt O14793); assay: similar Biacore binding assay
[5] = biological target: GDF11 (UniProt O95390); assay: Biacore SPR; ligand amine-coupled to CM5 chip, receptor-Fc as analyte

- binding [1]: binds
- binding [2]: binds
- binding [3]: binds
- binding [4]: binds
- binding [5]: binds
Substance: ActRIIA-mFc (from UniProt P27037 21-135) (Fc fusion)
